Results are given in words; binding and its absence hold for the method and conditions named. Binding seen in cells or lysates may run through a third protein. Some binding calls cover weakened binding; strength is not graded here. Blank lines part the entries; values can stand above or below the molecule they belong to.
Columns and labels:
Experiment in all cases: co-IP; chromatin replicating in Xenopus egg extract isolated in S-phase (unchallenged, or with aphidicolin and caffeine), complexes released with benzonase and sonication; antibodies (α-Cdc45, α-GINS, α-DONSON, α-TopBP1, α-Treslin) on Dynabeads, 4°C 1-2 h, washes in ANIB100; immunoblot
[1] = target: T1, Xenopus laevis DONSON (Xenopus laevis (endogenous in egg extract)) (UniProt Q5U4U4)
T1 sequence: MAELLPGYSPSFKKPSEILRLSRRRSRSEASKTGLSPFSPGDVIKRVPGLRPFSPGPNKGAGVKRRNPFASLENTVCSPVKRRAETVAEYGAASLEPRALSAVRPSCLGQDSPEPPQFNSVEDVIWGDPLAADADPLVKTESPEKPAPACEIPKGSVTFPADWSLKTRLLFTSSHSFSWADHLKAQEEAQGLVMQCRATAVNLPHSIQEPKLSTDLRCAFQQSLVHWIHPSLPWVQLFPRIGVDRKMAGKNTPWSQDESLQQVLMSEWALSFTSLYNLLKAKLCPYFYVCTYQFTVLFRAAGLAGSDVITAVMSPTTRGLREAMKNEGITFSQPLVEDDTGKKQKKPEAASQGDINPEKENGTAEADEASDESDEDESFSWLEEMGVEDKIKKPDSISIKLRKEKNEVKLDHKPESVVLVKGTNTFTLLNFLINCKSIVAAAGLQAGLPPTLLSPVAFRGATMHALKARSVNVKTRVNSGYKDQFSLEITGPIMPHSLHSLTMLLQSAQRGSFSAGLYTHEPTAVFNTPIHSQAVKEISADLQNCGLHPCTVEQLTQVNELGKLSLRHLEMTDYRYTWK

Protein sequences, listed by entry. Tags and fused reporters are not part of them. Lines headed by an entry give the natural chain unless they say otherwise; changes in a name come on top.
UniProt D3IUT5: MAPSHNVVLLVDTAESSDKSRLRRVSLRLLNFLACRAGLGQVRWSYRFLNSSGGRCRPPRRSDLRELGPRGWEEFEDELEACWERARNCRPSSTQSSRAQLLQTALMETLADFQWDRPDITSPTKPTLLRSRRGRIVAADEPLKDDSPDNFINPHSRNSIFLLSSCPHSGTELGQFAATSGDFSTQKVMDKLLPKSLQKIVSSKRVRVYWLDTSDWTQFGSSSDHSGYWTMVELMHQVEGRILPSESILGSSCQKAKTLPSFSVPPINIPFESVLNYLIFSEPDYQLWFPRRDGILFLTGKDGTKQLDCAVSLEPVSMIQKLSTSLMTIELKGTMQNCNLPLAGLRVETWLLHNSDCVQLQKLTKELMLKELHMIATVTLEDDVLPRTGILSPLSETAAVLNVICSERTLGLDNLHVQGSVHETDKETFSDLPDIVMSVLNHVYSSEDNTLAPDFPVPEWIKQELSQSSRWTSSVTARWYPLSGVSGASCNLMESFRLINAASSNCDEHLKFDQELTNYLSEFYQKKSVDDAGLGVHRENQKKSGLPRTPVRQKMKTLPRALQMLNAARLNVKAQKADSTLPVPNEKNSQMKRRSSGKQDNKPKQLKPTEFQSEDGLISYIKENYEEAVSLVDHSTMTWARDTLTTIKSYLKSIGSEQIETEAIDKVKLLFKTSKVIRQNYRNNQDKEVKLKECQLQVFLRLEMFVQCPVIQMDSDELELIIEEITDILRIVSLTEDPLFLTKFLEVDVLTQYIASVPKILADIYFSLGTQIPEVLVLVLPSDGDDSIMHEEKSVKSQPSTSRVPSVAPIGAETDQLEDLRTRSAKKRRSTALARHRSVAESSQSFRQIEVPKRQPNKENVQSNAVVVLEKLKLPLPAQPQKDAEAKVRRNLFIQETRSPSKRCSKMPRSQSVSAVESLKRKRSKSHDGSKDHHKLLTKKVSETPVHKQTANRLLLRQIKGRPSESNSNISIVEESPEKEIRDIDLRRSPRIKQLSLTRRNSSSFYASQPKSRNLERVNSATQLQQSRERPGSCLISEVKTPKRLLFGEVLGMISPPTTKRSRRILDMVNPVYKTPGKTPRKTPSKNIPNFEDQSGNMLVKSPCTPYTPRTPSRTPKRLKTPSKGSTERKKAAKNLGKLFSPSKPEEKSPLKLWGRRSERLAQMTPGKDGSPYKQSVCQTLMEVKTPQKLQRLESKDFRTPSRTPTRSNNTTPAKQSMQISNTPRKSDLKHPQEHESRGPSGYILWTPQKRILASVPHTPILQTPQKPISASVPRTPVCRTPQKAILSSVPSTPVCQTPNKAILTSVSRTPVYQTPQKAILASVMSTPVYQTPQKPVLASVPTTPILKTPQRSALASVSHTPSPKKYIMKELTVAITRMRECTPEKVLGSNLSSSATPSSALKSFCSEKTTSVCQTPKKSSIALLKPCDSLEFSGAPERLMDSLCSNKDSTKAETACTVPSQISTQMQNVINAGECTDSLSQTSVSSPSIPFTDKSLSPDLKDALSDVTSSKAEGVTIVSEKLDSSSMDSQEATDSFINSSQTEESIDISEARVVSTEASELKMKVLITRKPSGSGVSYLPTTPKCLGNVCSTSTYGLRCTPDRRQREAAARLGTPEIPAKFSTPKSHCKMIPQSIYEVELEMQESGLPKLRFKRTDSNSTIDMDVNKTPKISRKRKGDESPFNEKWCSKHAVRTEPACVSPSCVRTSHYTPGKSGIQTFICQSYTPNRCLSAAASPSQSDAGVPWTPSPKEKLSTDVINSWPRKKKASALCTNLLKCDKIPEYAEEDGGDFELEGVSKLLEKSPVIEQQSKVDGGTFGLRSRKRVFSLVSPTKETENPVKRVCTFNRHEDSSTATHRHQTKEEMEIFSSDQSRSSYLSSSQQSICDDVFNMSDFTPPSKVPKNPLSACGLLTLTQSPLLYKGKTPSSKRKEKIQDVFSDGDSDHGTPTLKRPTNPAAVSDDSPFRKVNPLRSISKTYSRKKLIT
UniProt Q6NRW0: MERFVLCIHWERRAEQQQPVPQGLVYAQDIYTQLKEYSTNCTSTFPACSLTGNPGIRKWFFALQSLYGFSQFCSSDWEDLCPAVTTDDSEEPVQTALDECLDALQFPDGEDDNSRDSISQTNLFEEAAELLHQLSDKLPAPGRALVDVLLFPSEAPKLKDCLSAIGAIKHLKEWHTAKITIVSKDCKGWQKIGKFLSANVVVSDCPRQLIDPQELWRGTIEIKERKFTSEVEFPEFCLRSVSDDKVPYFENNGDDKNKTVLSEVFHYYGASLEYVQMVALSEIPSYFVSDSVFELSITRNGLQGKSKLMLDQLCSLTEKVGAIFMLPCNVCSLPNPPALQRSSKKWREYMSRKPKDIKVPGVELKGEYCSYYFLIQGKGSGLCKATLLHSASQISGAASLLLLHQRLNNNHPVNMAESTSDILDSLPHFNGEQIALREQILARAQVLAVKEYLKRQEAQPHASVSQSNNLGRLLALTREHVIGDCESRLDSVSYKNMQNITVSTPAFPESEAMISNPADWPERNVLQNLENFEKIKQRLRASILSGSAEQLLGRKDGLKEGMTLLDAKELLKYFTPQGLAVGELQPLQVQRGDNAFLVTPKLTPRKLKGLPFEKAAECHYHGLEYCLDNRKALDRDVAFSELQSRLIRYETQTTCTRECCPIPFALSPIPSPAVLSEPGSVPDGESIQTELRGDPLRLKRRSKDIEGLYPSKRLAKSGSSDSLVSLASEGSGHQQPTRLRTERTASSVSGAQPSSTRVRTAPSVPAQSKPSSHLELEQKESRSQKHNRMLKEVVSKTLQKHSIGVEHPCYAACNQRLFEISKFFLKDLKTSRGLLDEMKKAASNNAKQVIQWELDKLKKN

[2] = target: T2, Xenopus laevis DONSON (Xenopus laevis (endogenous in egg extract)), Q5U4U4; settings: remark: other sources report otherwise
T2 chain: T1 sequence

[3] = target: Treslin/MTBP complex (Xenopus laevis (endogenous in egg extract)) (UniProt D3IUT5+Q6NRW0)
[4] = target: T3, Cdc45 (Xenopus laevis (endogenous in egg extract)), Q9YHZ6; settings: remark: other sources report otherwise
T3 chain: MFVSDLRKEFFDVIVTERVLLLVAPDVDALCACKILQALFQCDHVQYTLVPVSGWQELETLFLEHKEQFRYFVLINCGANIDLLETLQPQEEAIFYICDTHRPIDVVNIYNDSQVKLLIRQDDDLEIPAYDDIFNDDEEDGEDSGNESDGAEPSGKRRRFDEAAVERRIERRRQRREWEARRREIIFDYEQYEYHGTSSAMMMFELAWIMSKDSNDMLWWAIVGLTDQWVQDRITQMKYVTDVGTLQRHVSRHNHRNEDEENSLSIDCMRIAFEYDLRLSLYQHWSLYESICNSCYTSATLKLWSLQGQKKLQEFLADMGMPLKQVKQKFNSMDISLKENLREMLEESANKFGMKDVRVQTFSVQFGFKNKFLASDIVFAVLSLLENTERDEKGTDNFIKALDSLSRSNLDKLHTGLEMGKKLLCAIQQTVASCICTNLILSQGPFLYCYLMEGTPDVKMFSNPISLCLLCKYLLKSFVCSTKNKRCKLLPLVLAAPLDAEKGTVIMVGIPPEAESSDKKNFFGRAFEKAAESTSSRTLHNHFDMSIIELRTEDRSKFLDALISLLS

Molecule: Treslin/MTBP complex (from UniProt D3IUT5 1-1985; Q6NRW0 1-860)
binding [1]: binds

binding [2]: binds
B1: Cdc45, Q9YHZ6 1-567 (protein)
chain: T3 chain

B2: Xenopus laevis DONSON (protein, UniProt Q5U4U4 1-579)
chain: T1 sequence
binding [3]: binds

binding [4]: binds
B3: Xenopus laevis DONSON, Q5U4U4 1-579 (protein)
chain: T1 sequence

Reference: publication PMC10570026
